# The list shows a part of the results. Repeats are few or missing, and single values can be far off.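 Pooled together, 41 HAP1 clones carry intronic fluorescent tags on 61 cancer-associated proteins, and each clone is recognized by its imaging pattern. Measurements are benchmarked against DMSO-treated control wells. dBET6, a BRD4 degrader, served as the positive control.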
# The chains behind the UniProt entries cited, without tags or fusion partners.
# UniProt O14980, whole entry: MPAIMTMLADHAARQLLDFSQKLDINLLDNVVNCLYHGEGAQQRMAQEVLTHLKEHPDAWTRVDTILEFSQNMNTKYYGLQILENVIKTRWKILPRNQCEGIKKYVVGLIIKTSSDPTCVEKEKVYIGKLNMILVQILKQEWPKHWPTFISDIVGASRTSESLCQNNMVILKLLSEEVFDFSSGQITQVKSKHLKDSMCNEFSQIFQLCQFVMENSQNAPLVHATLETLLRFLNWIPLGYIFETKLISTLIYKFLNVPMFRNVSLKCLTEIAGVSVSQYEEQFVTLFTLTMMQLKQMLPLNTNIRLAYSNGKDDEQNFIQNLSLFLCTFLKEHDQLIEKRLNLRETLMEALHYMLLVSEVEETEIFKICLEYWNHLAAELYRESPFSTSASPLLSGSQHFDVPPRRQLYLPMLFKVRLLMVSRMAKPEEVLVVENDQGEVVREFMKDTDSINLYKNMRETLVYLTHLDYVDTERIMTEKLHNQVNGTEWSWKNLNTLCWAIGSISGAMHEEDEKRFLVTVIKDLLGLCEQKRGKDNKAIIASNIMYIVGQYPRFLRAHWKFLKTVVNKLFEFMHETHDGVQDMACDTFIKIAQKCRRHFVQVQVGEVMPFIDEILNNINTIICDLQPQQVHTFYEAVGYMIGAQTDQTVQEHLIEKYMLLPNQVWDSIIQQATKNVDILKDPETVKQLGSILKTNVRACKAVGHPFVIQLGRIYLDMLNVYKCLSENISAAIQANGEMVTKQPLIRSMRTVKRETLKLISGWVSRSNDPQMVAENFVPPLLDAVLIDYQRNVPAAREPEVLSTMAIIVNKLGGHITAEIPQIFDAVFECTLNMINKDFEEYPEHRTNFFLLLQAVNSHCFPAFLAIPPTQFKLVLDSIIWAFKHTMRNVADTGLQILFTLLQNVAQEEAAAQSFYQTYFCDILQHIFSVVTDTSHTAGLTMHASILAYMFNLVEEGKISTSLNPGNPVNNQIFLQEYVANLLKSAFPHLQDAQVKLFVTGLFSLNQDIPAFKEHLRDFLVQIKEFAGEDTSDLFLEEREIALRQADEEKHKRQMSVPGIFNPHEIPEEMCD
# Target: XPO1 (intron 15 mScarlet tag, HAP1) (UniProt O14980)
# Assay: XPO1 fluorescence intensity change vs DMSO (log2 fold change); higher = more XPO1 protein
# Settings: 6 h
row,Compound,XPO1 fluorescence intensity change (log2)
1,CC1(C)C[C@@H]1C(=O)N/C(=C\CCCCSC[C@H](N)C(=O)O)C(=O)O [Cilastatin] (10 µM),0.0605
2,CCCCCCCN(CC)CCCC(O)c1ccc(NS(C)(=O)=O)cc1 (stereo not drawn) [Ibutilide] (10.00092008 µM),0.0421
3,CC(C)(Oc1ccc(Cl)cc1)C(=O)O [Clofibric Acid] (10 µM),-0.0429
4,N=C(N)NC(=O)c1nc(Cl)c(N)nc1N [Amiloride] (9.99961 µM),0.0982
5,NC(=O)N[C@@H](CCC(=O)O)C(=O)O [Carglumic Acid] (10 µM),0.128
6,S=P(N1CC1)(N1CC1)N1CC1 [Thiotepa] (20 µM),0.00624
7,CCN(CC)C(=S)SSC(=S)N(CC)CC [Disulfiram] (10.03611718 µM),-0.182
8,CCCCN(CCCC)CCC(O)c1cc2c(Cl)cc(Cl)cc2c2cc(C(F)(F)F)ccc12 (stereo not drawn) [Halofantrine] (10 µM),0.0375
9,OC(CCN1CCCCC1)(c1ccccc1)C1CCCCC1 (stereo not drawn) [Trihexyphenidyl] (10.00006277 µM),0.00837
10,C[C@@H](O[C@H]1OCCN(Cc2n[nH]c(=O)[nH]2)[C@H]1c1ccc(F)cc1)c1cc(C(F)(F)F)cc(C(F)(F)F)c1 [Aprepitant] (10 µM),0.111
11,Nc1cccc2c1CN(C1CCC(=O)NC1=O)C2=O (stereo not drawn) [Lenalidomide] (4.1665 µM),0.17
12,Cc1c(OCC(F)(F)F)ccnc1C[S+]([O-])c1nc2ccccc2[nH]1 (stereo not drawn) [Lansoprazole] (10 µM),0.0685
13,c1ccc2[nH]c(-c3cscn3)nc2c1 [Thiabendazole] (10 µM),0.0559
